Experiment: Resting phenotype of CHIP S20E knock-in mice aged 9-12 months
Type: in vivo, mouse
[1] = knock-in mice aged 9-12 months, resting

B1: CHIP-S20E: CHIP with serine 20 to glutamic acid phospho-mimetic substitution; recombinant protein, adenovirus-expressed, or knock-in mouse (protein)
chain: MKGKEEKEGGARLGAGGGEPEKSPSAQELKEQGNRLFVGRKYPEAAACYGRVITRNPLVAVYYTNRALCYLKMQQHEQALADCRRALELDGQSVKAHFFLGQCQLEMESYDEAIANLQRAYSLAKEQRLNFGDDIPSALRIAKKKRWNSIEERRIHQESELHSYLSRLIAAERERELEECQRNHEGDEDDSHVRAQQACIEAKHDKYMADMDELFSQVDEKRKKRDIPDYLCGKISFELMREPCITPSGITYDRKDIEEHLQRVGHFDPVTRSPLTQEQLIPNLAMKEVIDAFISENGWVEDY
modifications: left off: small tags and cut ends
notes: CHIP with serine 20 to glutamic acid phospho-mimetic substitution; recombinant protein, adenovirus-expressed, or knock-in mouse
resting cardiac function and lifespan (global knock-in mice): normal resting cardiac function and lifespan | Body Weight [1]: 27.7 ± 2.5 g | Ejection Fraction [1]: 67.0 ± 2.1% | Heart Rate [1]: 733.1 ± 59.6 bpm | Heart Weight [1]: 147.0 ± 19.1 mg | Heart/Body Weight [1]: 5.3 ± 0.3 mg/g | Left Ventricular Weight [1]: 108.1 ± 13.6 mg | Left Ventricular/Body Weight [1]: 3.9 ± 0.2 mg/g | Long/Body Weight [1]: 4.8 ± 0.2 mg/g | Lung Weight [1]: 131.8 ± 12.9 mg
